Data reported in article PMC8214149.

Amino acid sequences for entries named in this document (tags omitted).
UniProt P43588: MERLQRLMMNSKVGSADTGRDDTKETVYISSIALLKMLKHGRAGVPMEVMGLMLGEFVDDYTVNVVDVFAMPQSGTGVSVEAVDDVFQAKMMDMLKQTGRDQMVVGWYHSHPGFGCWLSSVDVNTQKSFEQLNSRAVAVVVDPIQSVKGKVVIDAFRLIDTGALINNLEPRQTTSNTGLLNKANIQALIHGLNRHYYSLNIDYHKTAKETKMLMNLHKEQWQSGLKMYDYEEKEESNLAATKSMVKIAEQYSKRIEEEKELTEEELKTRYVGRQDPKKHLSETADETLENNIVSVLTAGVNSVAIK
UniProt P38737: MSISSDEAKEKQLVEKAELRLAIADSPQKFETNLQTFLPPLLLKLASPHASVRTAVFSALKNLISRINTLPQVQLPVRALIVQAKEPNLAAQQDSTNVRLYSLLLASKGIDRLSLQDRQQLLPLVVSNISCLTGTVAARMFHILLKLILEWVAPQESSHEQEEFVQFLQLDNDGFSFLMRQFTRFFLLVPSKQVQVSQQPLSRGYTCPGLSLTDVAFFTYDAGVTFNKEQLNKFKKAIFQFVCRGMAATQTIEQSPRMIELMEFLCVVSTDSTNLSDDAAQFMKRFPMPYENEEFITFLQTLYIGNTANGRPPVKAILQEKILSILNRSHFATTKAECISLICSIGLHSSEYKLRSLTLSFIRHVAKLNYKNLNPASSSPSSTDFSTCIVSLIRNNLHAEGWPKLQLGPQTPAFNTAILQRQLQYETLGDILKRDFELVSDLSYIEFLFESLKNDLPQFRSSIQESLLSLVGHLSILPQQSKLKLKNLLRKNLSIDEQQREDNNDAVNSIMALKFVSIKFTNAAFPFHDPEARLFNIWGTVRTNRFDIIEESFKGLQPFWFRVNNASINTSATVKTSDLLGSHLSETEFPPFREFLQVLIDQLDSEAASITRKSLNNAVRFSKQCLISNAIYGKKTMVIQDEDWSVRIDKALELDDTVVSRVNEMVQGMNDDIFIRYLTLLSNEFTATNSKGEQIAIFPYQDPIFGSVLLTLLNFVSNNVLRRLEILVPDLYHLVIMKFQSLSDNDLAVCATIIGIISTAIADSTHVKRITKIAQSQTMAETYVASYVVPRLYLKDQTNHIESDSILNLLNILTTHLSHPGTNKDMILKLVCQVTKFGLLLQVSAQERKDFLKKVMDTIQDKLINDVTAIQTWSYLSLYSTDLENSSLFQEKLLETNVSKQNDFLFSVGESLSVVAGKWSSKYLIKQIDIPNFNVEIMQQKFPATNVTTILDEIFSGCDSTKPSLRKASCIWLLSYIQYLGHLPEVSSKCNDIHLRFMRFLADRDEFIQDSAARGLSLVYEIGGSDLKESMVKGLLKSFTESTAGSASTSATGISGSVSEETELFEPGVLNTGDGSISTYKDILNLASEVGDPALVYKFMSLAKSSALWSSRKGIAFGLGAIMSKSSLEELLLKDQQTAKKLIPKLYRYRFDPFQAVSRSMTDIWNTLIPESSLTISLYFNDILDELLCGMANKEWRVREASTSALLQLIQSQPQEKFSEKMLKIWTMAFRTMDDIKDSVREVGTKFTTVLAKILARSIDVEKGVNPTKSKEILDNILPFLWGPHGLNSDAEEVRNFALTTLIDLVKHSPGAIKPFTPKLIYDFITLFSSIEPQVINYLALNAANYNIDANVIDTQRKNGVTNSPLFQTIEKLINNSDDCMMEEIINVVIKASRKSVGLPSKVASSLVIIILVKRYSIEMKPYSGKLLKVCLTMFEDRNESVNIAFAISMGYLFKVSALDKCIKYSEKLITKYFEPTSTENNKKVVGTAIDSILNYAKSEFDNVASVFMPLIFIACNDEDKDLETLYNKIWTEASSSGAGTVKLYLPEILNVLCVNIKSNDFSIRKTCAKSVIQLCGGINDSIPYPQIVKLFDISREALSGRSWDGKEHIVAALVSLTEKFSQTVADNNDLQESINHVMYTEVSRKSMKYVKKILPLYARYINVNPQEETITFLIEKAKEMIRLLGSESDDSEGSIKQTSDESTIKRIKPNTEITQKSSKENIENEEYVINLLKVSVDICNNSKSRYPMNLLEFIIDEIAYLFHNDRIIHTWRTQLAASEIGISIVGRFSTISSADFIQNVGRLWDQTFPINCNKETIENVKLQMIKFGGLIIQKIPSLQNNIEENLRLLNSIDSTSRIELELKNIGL
UniProt Q12495: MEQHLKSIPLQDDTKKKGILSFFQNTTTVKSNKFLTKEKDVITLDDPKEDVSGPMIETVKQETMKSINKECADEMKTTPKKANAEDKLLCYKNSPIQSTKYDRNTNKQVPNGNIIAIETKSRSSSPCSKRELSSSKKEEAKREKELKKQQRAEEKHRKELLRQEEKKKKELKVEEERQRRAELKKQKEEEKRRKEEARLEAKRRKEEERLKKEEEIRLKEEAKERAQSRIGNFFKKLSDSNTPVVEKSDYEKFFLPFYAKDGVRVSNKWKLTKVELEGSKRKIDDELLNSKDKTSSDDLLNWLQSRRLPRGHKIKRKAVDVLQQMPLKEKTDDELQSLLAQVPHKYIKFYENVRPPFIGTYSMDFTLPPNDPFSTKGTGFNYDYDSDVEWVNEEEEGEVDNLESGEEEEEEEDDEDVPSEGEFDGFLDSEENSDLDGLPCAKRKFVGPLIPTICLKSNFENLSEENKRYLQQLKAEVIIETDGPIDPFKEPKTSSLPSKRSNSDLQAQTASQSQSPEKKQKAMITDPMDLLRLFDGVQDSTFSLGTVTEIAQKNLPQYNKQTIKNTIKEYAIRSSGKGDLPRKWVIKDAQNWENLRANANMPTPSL
UniProt P43593: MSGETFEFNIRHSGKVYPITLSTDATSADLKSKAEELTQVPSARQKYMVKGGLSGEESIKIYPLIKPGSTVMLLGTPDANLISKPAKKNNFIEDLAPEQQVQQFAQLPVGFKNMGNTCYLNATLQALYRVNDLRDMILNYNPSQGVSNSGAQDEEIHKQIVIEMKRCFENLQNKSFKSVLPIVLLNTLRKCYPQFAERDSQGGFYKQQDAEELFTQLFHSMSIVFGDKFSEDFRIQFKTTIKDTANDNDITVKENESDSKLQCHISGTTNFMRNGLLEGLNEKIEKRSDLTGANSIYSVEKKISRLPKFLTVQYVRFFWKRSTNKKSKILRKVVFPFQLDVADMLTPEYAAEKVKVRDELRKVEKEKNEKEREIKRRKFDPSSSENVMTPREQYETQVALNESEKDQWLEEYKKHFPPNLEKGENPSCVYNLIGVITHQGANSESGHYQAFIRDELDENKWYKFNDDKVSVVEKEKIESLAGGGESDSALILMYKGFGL

B1: Fzo1 (protein, UniProt P38297 1-855)
chain: MSEGKQQFKDSNKPHKDSTDQDDDAATIVPQTLTYSRNEGHFLGSNFHGVTDDRTTLFDGEEGRREDDLLPSLRSSNSKAHLISSQLSQWNYNNNRVLLKRSILKTQAFMDQLQEENNIRPIFIAANDEREKLHVLQLNIKLDGQYNTKEKNGFNIEKKALSKLFHSQIVSVTNHLNALKKRVDDVSSKVFITGDVNTGKSALCNSLLKQRLLPEDQLPCTNVFSEILEARENDGIEEVHAIPLNIAPTLKEAIDMYSIQNPKTYEIHTLKELPDLVPQNGKYALLKIYIKDDKRPASTSLLRNGTVDISLIDSPGLNMDSLQTAEVMSRQEEIDLVIFVVNAENQLTLSAKEFISLASREKKLMFFVVKKFDKIRDKQRCKELILKQIRDLSPETYKRAADFVHFVSKNGDELPHYHNENDNEDHGDRKPDDDPYSSSDPDPDFDSLEDSLRNFVLKKRSLSKLLPAKTYLSKLLSDIIMISKSNMKMYSEEEIKINEQLETLRPEILSARAKCNDLTTSVDQMAEQTITMTYNNTKEALLNALDVPLHEYPKYQGLGQIYDFIFSTEAFIANQIDESIGSSELFAKQKTDLLVKKIYEIGKNELGDDFMCERVFRSELMFRKRKHLIGKRLKVSLSITDLFAPTWKGFLSYLSWQKPVTAPLPDIEGQTNEGQIGLMKYLGLKNYPLTQYWSRPSLLFTSKIPTLTLYFLGSTKVVGNIILNGIKLSSWSSLKKLSVPVIVVGSLLGLTYLIHDLPRALPMNLSIKYKRKLQELDYIHLNAQRTSNEVRDVLRVPTREILRSCEIIMDKKQITKKELENKKESNLLSIKFFQSLYEGTVAQKLMVEEINLDID

The molecules below were run against Rpn11-TAP (S. cerevisiae (yeast strain)) (UniProt P43588) (assay: affinity purification with mass spectrometry; lysate of the RPN11-TAP yeast strain bound to IgG resin 2 h at 4 °C, washed (50 mM sodium phosphate pH 7.4, 100 mM NaCl, 5 mM MgCl2, 1 mM ATP), released with TEV; proteins identified by mass spectrometry).

Row | binding | Molecule
1 | binds | Ecm29 (from UniProt P38737 1-1868)
2 | binds | Rlf2 (from UniProt Q12495 1-606)
3 | binds | Ubp6 (from UniProt P43593 1-499) (enzyme)
4 | binds | B1

Results are given in words; binding and its absence hold for the method and conditions named. Binding seen in cells or lysates may run through a third protein. A yes stands for co-enrichment or nearness to the bait. Other partners may have been found.
